Substitutions are numbered along the chain they refer to. In names and notes the source's numbering stands. These are yes or no findings as the source states them, for the method shown. Binding seen in cells or lysates may run through a third protein. Where a sequence is shown, tags or fusion partners need not be part of it.
T1: VN:SPT-4A (SPATULA V176A-V177A-D178A-E179A fused to the N-terminal fragment of Venus YFP) (Arabidopsis thaliana) (UniProt Q9FUA4)
T1 sequence: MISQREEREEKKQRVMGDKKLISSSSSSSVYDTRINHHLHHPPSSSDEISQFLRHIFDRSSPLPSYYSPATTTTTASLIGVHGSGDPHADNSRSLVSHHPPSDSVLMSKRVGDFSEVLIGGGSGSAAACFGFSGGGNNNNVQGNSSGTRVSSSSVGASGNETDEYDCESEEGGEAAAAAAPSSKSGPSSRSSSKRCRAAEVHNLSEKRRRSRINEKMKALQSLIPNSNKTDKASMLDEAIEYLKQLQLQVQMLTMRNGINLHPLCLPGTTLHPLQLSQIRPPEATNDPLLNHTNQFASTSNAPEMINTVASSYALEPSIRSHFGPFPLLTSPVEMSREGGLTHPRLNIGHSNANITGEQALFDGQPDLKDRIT

T2: VN:SPT (SPATULA fused to the N-terminal fragment of Venus YFP) (Arabidopsis thaliana) (UniProt Q9FUA4)
T2 sequence: T1 sequence with A176V, A177V, A178D, A179E

B1: VC:HEC1-2A (HECATE1 R138A-H139A fused to the C-terminal fragment of Venus YFP) (protein, UniProt Q9FHA7 1-241)
chain: MDSDIMNMMMHQMEKLPEFCNPNSSFFSPDHNNTYPFLFNSTHYQSDHSMTNEPGFRYGSGLLTNPSSISPNTAYSSVFLDKRNNSNNNNNGTNMAAMREMIFRIAVMQPIHIDPEAVKPPKRRNVRISKDPQSVAAAARRERISERIRILQRLVPGGTKMDTASMLDEAIHYVKFLKKQVQSLEEQAVVTGGGGGGGGRVLIGGGGMTAASGGGGGGGVVMKGCGTVGTHQMVGNAQILR
B2: VC:HEC1 (HECATE1 fused to the C-terminal fragment of Venus YFP) (natural protein, Arabidopsis thaliana, UniProt Q9FHA7 1-241, looked up)
chain: B1 chain with A138R, A139H
notes: HECATE1 (HEC1), bHLH transcription factor of Arabidopsis thaliana, AT5G67060; source: Arabidopsis Col-0 mesophyll protoplasts, transfected (PEG-Ca), in cells; not shown: Venus YFP C-terminal fragment (residues 155-238)

Assays:
[1] = target: T1, VN:SPT-4A (SPATULA V176A-V177A-D178A-E179A fused to the N-terminal fragment of Venus YFP) (Arabidopsis thaliana); experiment: split reporter; BiFC with split Venus YFP (VN 1-154, VC 155-238) in Arabidopsis Col-0 mesophyll protoplasts, PEG-Ca transfection, 35S promoter, read 16 h after transfection by confocal microscopy; frequency = YFP-positive protoplasts/total protoplasts x 100, four images of about 200 protoplasts …
[2] = target: T2, VN:SPT (SPATULA fused to the N-terminal fragment of Venus YFP) (Arabidopsis thaliana); experiment: as above

| Binder | binding [1] | binding [2] |
| --- | --- | --- |
| B1 | no binding | no binding |
| B2 | no binding | – |
